In publication PMC12068304:
No constants are given. Whether binding was seen depends on the method and setting. Binding seen in cells or lysates may run through a third protein. Some results given as binding are weak or reduced against the parent protein; the word gives no strength.

Chains of the proteins cited; added tags and fusions are not shown. Residues count along the entry.
UniProt P02649, residues 19-317: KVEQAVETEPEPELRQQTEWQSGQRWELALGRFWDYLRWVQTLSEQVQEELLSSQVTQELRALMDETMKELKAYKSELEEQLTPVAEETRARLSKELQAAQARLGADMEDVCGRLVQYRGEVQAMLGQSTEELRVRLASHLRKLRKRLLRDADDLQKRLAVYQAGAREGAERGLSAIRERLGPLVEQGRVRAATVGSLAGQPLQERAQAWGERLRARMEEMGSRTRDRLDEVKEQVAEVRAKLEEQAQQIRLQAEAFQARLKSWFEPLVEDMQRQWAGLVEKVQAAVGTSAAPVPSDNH
UniProt Q14258: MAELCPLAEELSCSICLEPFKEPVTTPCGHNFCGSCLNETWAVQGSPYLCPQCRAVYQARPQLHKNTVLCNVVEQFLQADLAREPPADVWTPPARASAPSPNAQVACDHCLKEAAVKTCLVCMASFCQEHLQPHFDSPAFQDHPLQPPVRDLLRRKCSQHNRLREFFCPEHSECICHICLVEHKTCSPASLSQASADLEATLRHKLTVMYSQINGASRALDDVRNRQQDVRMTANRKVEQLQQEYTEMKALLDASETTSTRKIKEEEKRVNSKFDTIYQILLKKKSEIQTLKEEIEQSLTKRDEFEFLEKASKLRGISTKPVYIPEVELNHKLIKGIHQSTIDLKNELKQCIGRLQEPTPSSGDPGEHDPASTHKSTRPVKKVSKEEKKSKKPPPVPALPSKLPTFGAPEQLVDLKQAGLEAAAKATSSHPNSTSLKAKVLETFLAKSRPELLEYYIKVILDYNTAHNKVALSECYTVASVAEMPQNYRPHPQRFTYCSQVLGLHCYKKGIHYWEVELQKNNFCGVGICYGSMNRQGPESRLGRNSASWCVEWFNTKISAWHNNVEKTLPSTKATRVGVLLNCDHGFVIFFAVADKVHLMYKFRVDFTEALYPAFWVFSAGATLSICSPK

Biological target: Apolipoprotein E (human (endogenous in LNCaP)) (UniProt P02649)
Assay: co-IP; LNCaP cell lysates in NP40 buffer with PMSF and phosphatase inhibitor cocktail, followed by immunoblotting

## Tripartite motif 25 (from UniProt Q14258 1-630) (enzyme)
  binding: binds
